# Data as given in PubChem BioAssay AID652243 (Drosophila RNAi Screening Center, 2013).
# Screen: 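Fly genes required for human androgen receptor driven transcription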 (primary screen)
# System: Drosophila S2R+ cells
# Knock-down reagent: long dsRNA against Drosophila genes
# Timing: 72 h (48 h, then 24 h hormone)
# Conditions: synthetic androgen R1881 at 10 nM for 24 h
# Detection: 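Per-well raw luminescence of the androgen-driven firefly reporter and of the Renilla control, two replicates each, without normalisation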
# Scale: firefly reporter light: higher = more light from androgen-responsive reporter; Renilla control light: higher = more constitutive control signal (cell number, transfection)
# Rule for the call: 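Hit when the log firefly-to-Renilla ratio dropped or increased by a fixed fold versus the mean of GFP or LacZ controls across duplicate plates; lowering cut given as 1.5 and as 3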
# Calls: active = hit: reporter lowered or raised; inactive = no hit
# The deposit covers about 24,000 reagents; below is an unselected part of those that have a named target and a result. Over the whole deposit, 246 (1%) are marked active. 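Plates not normalised; calls are printed but the firefly/Renilla ratio behind them is not deposited; fold cut for lowering reported inconsistently.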 Raw values are not corrected between plates. Not stated in the record: the amount of reagent.
Gene,dsRNA,"firefly reporter light, replicate 1","firefly reporter light, replicate 2","Renilla control light, replicate 1","Renilla control light, replicate 2",outcome
CG15544 (GeneID 43655),DRSC15082,4.97e5,5.39e5,2.87e6,3.59e6,inactive
CG15544 (GeneID 43655),DRSC25686,6.33e5,6.53e5,8.58e5,7.31e5,inactive
svr (GeneID 30998),DRSC17293,1.14e6,7.00e5,1.47e6,8.77e5,inactive
svr (GeneID 30998),DRSC18841,3.30e5,3.28e5,4.18e6,3.39e6,inactive
svr (GeneID 30998),DRSC27397,2.02e5,2.64e5,7.70e5,8.80e5,inactive
svr (GeneID 30998),DRSC38955,9.07e5,6.56e5,2.07e6,1.27e6,inactive
tsu (GeneID 35924),DRSC07265,3.68e5,1.89e5,1.91e6,1.44e6,inactive
CG1208 (GeneID 40727),DRSC12190,42502,39335,4.16e5,4.74e5,inactive
Upf3 (GeneID 37792),DRSC04092,1.14e6,5.71e5,1.62e6,8.63e5,inactive
Upf3 (GeneID 37792),DRSC27316,2.12e5,2.91e5,5.35e5,5.41e5,inactive
COX5A (GeneID 41432),DRSC16611,1.82e5,1.61e5,2.67e6,2.06e6,inactive
TwdlO (GeneID 43204),DRSC16043,1.83e5,2.54e5,2.29e6,2.33e6,inactive
Duba (GeneID 39302),DRSC10582,5.11e5,8.26e5,7.30e5,1.06e6,inactive
CG31955 (GeneID 319045),DRSC00285,91377,1.01e5,9.49e5,7.61e5,inactive
Hsp26 (GeneID 39075),DRSC11189,9.81e5,4.76e5,1.40e6,6.53e5,inactive
Ythdc1 (GeneID 38420),DRSC08141,6.83e5,7.05e5,9.63e5,6.91e5,inactive
CG9795 (GeneID 40545),DRSC12336,35678,23837,3.80e5,3.38e5,inactive
CG9795 (GeneID 40545),DRSC24244,6.77e5,8.79e5,6.84e5,9.69e5,inactive
CG14151 (GeneID 39201),DRSC10153,2.49e5,2.29e5,1.87e6,1.69e6,inactive
trp (GeneID 43542),DRSC17088,3.25e5,4.62e5,1.71e6,2.69e6,inactive
Sec13 (GeneID 44437),DRSC14144,82991,93294,6.48e5,6.39e5,inactive
BomT2 (GeneID 50208),DRSC06631,1.54e5,1.33e5,3.36e6,3.36e6,inactive
CG13002 (GeneID 32681),DRSC19521,6.37e5,5.03e5,4.55e6,2.97e6,inactive
CG13002 (GeneID 32681),DRSC29478,4.51e5,5.03e5,9.52e5,9.52e5,inactive
CG12071 (GeneID 43660),DRSC22972,5.40e5,7.21e5,1.12e6,1.39e6,inactive
S6kII (GeneID 33139),DRSC20645,98082,84140,8.25e5,8.05e5,inactive
S6kII (GeneID 33139),DRSC36674,,,,,inactive
S6kII (GeneID 33139),DRSC36675,,,,,inactive
CG15403 (GeneID 33527),DRSC00417,1.12e5,1.17e5,1.06e6,9.59e5,inactive
ND-B17.2 (GeneID 33443),DRSC00577,1.34e5,1.04e5,1.20e6,9.73e5,inactive
ND-B17.2 (GeneID 33443),DRSC26940,4.92e5,3.79e5,9.74e5,6.27e5,inactive
Eb1 (GeneID 35584),DRSC05016,4.68e5,3.61e5,1.96e6,1.56e6,inactive
CG18735 (GeneID 59137),DRSC04312,2.13e5,3.00e5,2.08e6,1.70e6,inactive
CG18735 (GeneID 59137),DRSC24372,6.13e5,5.82e5,8.52e5,7.39e5,inactive
CG11630 (GeneID 35429),DRSC03696,2.48e5,3.10e5,1.78e6,1.61e6,inactive
CG6763 (GeneID 42754),DRSC16110,1.26e5,1.48e5,1.96e6,1.82e6,inactive
CG6763 (GeneID 42754),DRSC24299,5.84e5,8.85e5,8.57e5,9.90e5,inactive
CG1236 (GeneID 40708),DRSC12203,24597,44636,3.99e5,3.59e5,inactive
TwdlC (GeneID 43245),DRSC14749,1.20e5,1.69e5,2.01e6,2.14e6,inactive
TwdlC (GeneID 43245),DRSC25255,1.62e6,1.20e6,1.34e6,8.62e5,inactive
HtrA2 (GeneID 41756),DRSC16425,1.56e5,1.03e5,2.35e6,2.35e6,inactive
HtrA2 (GeneID 41756),DRSC28553,3.24e5,7.72e5,4.12e5,1.09e6,inactive
Qtzl (GeneID 318990),DRSC01221,1.57e5,2.97e5,9.53e5,8.21e5,inactive
CG32369 (GeneID 38873),DRSC10042,99654,1.16e5,1.05e6,1.84e6,inactive
CG32369 (GeneID 38873),DRSC10834,8.91e5,8.79e5,1.48e6,1.88e6,inactive
CG32369 (GeneID 38873),DRSC23995,5.80e5,3.34e5,6.74e5,6.16e5,inactive
fd96Ca (GeneID 43010),DRSC16946,90741,1.73e5,1.77e6,2.05e6,inactive
fd96Ca (GeneID 43010),DRSC23974,4.77e5,4.25e5,6.40e5,5.51e5,inactive
CG9667 (GeneID 40960),DRSC16535,57570,74244,1.77e6,2.34e6,inactive
CG9667 (GeneID 40960),DRSC23667,6.09e5,6.75e5,8.66e5,9.32e5,inactive
ppk23 (GeneID 32731),DRSC20110,6.14e5,4.78e5,3.24e6,2.69e6,inactive
ppk23 (GeneID 32731),DRSC26441,2.37e5,2.87e5,5.09e5,6.08e5,inactive
CG5961 (GeneID 41541),DRSC15927,46272,1.45e5,6.06e5,1.29e6,inactive
CG5961 (GeneID 41541),DRSC27152,2.58e5,2.77e5,6.41e5,6.96e5,inactive
Su(Tpl) (GeneID 40171),DRSC10954,13436,31129,1.74e5,2.10e5,inactive
Su(Tpl) (GeneID 40171),DRSC26497,38945,35037,94471,91792,inactive
CG13032 (GeneID 39863),DRSC09912,3.12e5,2.19e5,2.23e6,1.73e6,inactive
Mpv17 (GeneID 43831),DRSC17198,3.43e5,3.86e5,3.92e6,3.54e6,inactive
brk (GeneID 31665),DRSC23036,7.39e5,1.03e6,1.63e6,1.98e6,inactive
brk (GeneID 31665),DRSC27320,3.75e5,2.92e5,7.64e5,7.19e5,inactive
CG30376 (GeneID 246576),DRSC05086,1.23e5,2.73e5,4.68e5,6.73e5,inactive
CG30015 (GeneID 36147),DRSC05241,1.91e5,1.87e5,6.67e5,3.11e5,inactive
CG30015 (GeneID 36147),DRSC07027,8.88e5,7.06e5,2.21e6,2.39e6,inactive
CG30015 (GeneID 36147),DRSC07028,1.26e5,1.54e5,1.15e6,9.49e5,inactive
CG11123 (GeneID 35664),DRSC06040,2.45e5,3.21e5,1.76e6,1.52e6,inactive
CG11123 (GeneID 35664),DRSC28420,3.23e5,6.45e5,4.24e5,1.31e6,inactive
CG31913 (GeneID 319023),DRSC00892,1.24e5,67505,3.97e5,3.20e5,inactive
CG31913 (GeneID 319023),DRSC27532,1.61e5,1.72e5,6.16e5,7.26e5,inactive
CG31019 (GeneID 318558),DRSC13994,1.25e6,5.45e5,3.90e6,1.71e6,active
CG31019 (GeneID 318558),DRSC26555,5.38e5,5.02e5,6.13e5,5.20e5,inactive
Ude (GeneID 42953),DRSC15324,81963,37346,5.04e5,3.44e5,inactive
CG14406 (GeneID 32421),DRSC19592,1.89e5,1.39e5,1.48e6,1.25e6,inactive
CG11836 (GeneID 43007),DRSC14396,91579,93910,5.77e5,5.13e5,inactive
aurB (GeneID 34504),DRSC03548,8.70e5,6.65e5,2.26e6,1.62e6,inactive
aurB (GeneID 34504),DRSC23324,3.77e5,4.61e5,1.09e6,8.91e5,inactive
